Data: PubChem BioAssay AID687031 (Broad Institute, 2013)
Among all 1,400 compounds or so, about 50 (4%) were called active.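 How the source made its calls: active means fitted curve reaches 30% CPE protection at or below the top valid dose, with every test run called active; inconclusive means test runs disagree, some active and some not; inactive means every test run inactive, including effects in the wrong direction.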 The list shows a part of the results. Entries with a potency or affinity are not part of this list.

test: antiviral rescue of DENV2-infected BHK-21 cells – cell-based, ATP luminescence, cherry-pick, dose response (AID 687031); settings: BHK-21 DENV2 CPE protection, 5 d; at 19.5 µM (top of the series) unless noted;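 further: 0% = infected DMSO wells and 100% = uninfected cell wells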

CPE protection (higher = active), inactive:
C[C@@H]1CCCCO[C@@H](CN(C)C(=O)c2ccccc2)[C@@H](C)CN([C@H](C)CO)C(=O)c2cc(NC(=O)CCC(F)(F)F)ccc2O1 -4.35%
O=C(O)Cc1ccc(NC(=O)c2ccc(NC(=O)C3CC3)cc2)cc1 -6.03%
O=C(Nc1nnc(Cc2ccccc2F)s1)c1ccccc1Cl 12%
CCN(C(=O)N(CC)c1ccccc1)c1ccccc1 2.33%
COc1ccc(S(=O)(=O)N2CCCCC2c2cc(C(=O)Nc3ccccc3)no2)cc1 (configuration not stated) 23%
O=S(=O)(c1cccs1)N1CCN(c2ccnc3cc(Cl)ccc23)CC1 21.1%
COC(=O)C1(CC2CC(c3ccncc3)=NO2)CCN(C(=O)OC(C)(C)C)CC1 (configuration not stated) -25.7%
Cc1ccc(Cn2cc(CN3CC(N4CCSCC4)CS3(=O)=O)nn2)cc1 (configuration not stated) 14.4%
CNC[C@@H]1OCCCC[C@H](C)Oc2ccc(NS(=O)(=O)c3c(C)noc3C)cc2C(=O)N([C@@H](C)CO)C[C@H]1C 17.3%
CC(C)(C)c1ccc(C(=O)OCC(=O)Nc2sc3c(c2C#N)CCC3)cc1 6.08%
Cc1cc(NC(=O)Cn2c(=O)oc3ccc(Cl)cc32)no1 21.6%
COc1cc2c(cc1OC)C(Nc1ccc(S(N)(=O)=O)cc1)=NC(C)(C)C2 -11.4%
Cn1c(=O)c2[nH]c(CCCCc3nc4ccccc4[nH]3)nc2n(C)c1=O 6.76%
Cc1ccc2c(COC(=O)CNC(=O)c3ccccc3)cc(=O)oc2c1 -8.55%
CN(C)C(=O)c1cccc(-c2ccc(C3[C@H]4CNC[C@@H]3N4Cc3cc(F)ccc3F)cc2)c1 (some centres not stated) -17%
CC1CCCCC12NC(=O)N(CC(=O)NCc1cccs1)C2=O (configuration not stated) 2.88%
Cc1ccc2[nH]c(-c3ccccc3)cc(=O)c2c1 -26.5%
CC1CCC(CN2CCN=C2Nc2ccccc2)CC1 (configuration not stated) 26.6%
O=C(NCc1ccccc1)[C@H]1CCCN1C(=O)[C@H]1CCCN1C(=O)c1ccc(Cl)cc1 -10.2%
CN1C[C@@H]2[C@@H]3C(=O)N(Cc4ccccc4)C(=O)[C@@H]3[C@](C)(C1=O)N2C(=O)c1ccc(C(C)(C)C)cc1 8.78%
C[C@@H]1CCCCO[C@@H](CN(C)S(=O)(=O)c2ccc(F)cc2)[C@@H](C)CN([C@H](C)CO)C(=O)c2cc(NC(=O)Nc3ccc(C(F)(F)F)cc3)ccc2O1 -3.5% [at 21 µM]
Cc1cnc(CN(C)C(=O)CC2C(=O)NCCN2Cc2cccc(F)c2F)[nH]1 (configuration not stated) 12.8%
CN(C)CC#Cc1ccc([C@H]2[C@@H](CO)N(C(=O)C3CCC3)[C@H]2C#N)cc1 -9.33%
Cc1ccc(S(=O)(=O)N(C)C[C@@H]2OCCCC[C@H](C)Oc3ccc(NS(=O)(=O)c4c(C)noc4C)cc3C(=O)N([C@@H](C)CO)C[C@@H]2C)cc1 -20.7%
CCC(=O)Nc1ccc(NC(=O)c2oc3ccccc3c2C)cc1 -18.3%
Cc1cccnc1C(NC(=O)C1CCN(CCCc2ccccc2)CC1)c1ccc(Cl)cc1 (configuration not stated) 10.6%
Cc1ccc(C(=O)OCC(=O)N2C(C)CCCC2C)cc1S(=O)(=O)N1CCOCC1 (configuration not stated) 2.87%
CC(C)CN(C(=O)c1cc(Cl)nc2ccccc12)c1c(N)n(Cc2ccccc2)c(=O)[nH]c1=O -16.7%
Cc1noc(C)c1S(=O)(=O)Nc1cccc2c1O[C@H](CN(C)C(=O)NC(C)C)[C@H](C)CN([C@@H](C)CO)C2=O 11.1%
CC(Oc1ccc(Cl)cc1Cl)C(=O)NCCCN1CCOCC1 (configuration not stated) -24.5%
Cc1ccccc1OCCCCN1CCCCC1 2.62%
COc1cccc(-c2ccc3c(c2)[C@H]2[C@H](CCN2S(=O)(=O)c2cn(C)cn2)[C@@H](CO)N3)c1 -4.08%
C=CCc1ccc(OCCCNCc2ccccc2)c(OC)c1 -3.76%
CCCCN(C)CCCNC(=O)c1cc(-c2cccs2)nc2ccccc12 27.6%
O=C(Nc1ccc(Cl)cc1)N(CCCN1CCOCC1)Cc1cccs1 -12.8%
CCN(CC(=O)Nc1cc(Cl)ccc1C)C(=O)c1ccc2c(c1)NC(=O)C(C)S2 (configuration not stated) -3.39%
Cc1ccccc1CN1CCN(CC(=O)NC(C)c2ccccc2)CC1 (configuration not stated) -3.52%
CSc1ccc(S(=O)(=O)NC2CC3CCC2C3)cc1 (configuration not stated) -7.3%
CCN(CC(=O)Nc1c(F)cccc1F)C(=O)C1CCN(S(=O)(=O)c2ccc(F)cc2)CC1 -5.16%
CN(CCc1ccccn1)C(=O)CCC1CCCN(C(=O)c2cccc(N(C)C)c2)C1 (configuration not stated) -10.9%
O=C(OCC(=O)N1CCc2ccccc21)[C@@H]1CCCN1S(=O)(=O)c1ccccc1F 29%
C/C(=N/NC(=O)CCC(=O)Nc1cccc(Cl)c1)c1ccc(C)cc1 4.62%
C[C@@H](NC(=O)c1ncn(C)c1C(=O)N[C@H](C)c1ccccc1)c1ccccc1 2.74%
O=C(Nc1ccncc1)Nc1ccc(Cl)cc1Cl 1.37%
O=S(=O)(c1cccc(C(F)(F)F)c1)N1CCN(CC(O)COCc2ccccc2)CC1 (configuration not stated) -4.84%
Brc1ccc(OCc2nnc(SCC3CCCCC3)o2)cc1 1.56%
COc1ccccc1CN1CCCC(N2CCN(c3ccccc3OC)CC2)C1 (configuration not stated) -5.36%
COc1ccccc1CN1[C@H](CO)[C@@H](c2ccccc2)C12CN(C(=O)c1ccccn1)C2 17.5%
NC(=O)c1ccccc1NC(=O)COC(=O)C1(c2ccccc2)CC1 -0.556%
CCCCCNCc1ccc(OCc2ccc(Cl)nc2)c(OC)c1 -18.7%
Cc1ccc(S(=O)(=O)N(C)C[C@@H]2OCCCC[C@H](C)Oc3ccc(NS(=O)(=O)c4c(C)noc4C)cc3C(=O)N([C@H](C)CO)C[C@H]2C)cc1 -11.9%
COc1ccc(CC(=O)NCC2CCCN(Cc3ccc(OC(F)(F)F)cc3)C2)cc1 (configuration not stated) 12.2%
Cc1cccc(C)c1NC(=O)CN1CCN(C(=O)CN2C(=O)NC3(CCCCC3C)C2=O)CC1 (configuration not stated) 13.3%
Cc1ccnc(NC(=O)c2ccc(Cl)c(S(=O)(=O)N3CCCC3)c2)c1 -9.39%
O=S(=O)(NCc1c(Cl)cccc1Oc1ccccc1)c1ccccc1 -4.85%
COc1cc(C(=O)OCCn2c(=O)c3c(ncn3CCN(C)C)n(C)c2=O)cc(OC)c1OC -1.4%
COc1ccc(-c2cc(C#N)nc(NN)n2)cc1 -4.19%
Clc1ccc(-c2csc(-c3cccnc3)n2)s1 -19.4%
C[C@@H]1CN([C@H](C)CO)C(=O)c2cc(NC(=O)Nc3ccc(C(F)(F)F)cc3)ccc2O[C@H]1CN(C)C(=O)NC1CCCCC1 17.9%
CCC(C)c1ccc(NC(=O)NCCN2CCCCC2)cc1 (configuration not stated) -15.7%
O=C(C1CC1)N1CC[C@@H]2[C@H]1c1cc(-c3ccc(F)cc3)ccc1N[C@@H]2CO 19.9%
COc1ccc(Cc2nnc(NC(=O)c3ccccc3Cl)s2)cc1OC -3.71% [at 10 µM]
C=CCOc1ccccc1CN1CCC(Cc2ccccc2)CC1 -20%
COC(=O)C1[C@H]2SC(C)(C)C(C(=O)OC)N2C(=O)N1Cc1nc2ccccc2s1 (some centres not stated) 1.83%
CN(C)CCCNc1oc(-c2ccc(Cl)cc2)nc1S(=O)(=O)c1ccccc1 14%
O=S(=O)(Nc1cccc(-n2cnnn2)c1)c1cccc(Cl)c1 2.88%
CC1(c2nnnn2Cc2ccccc2)CCC(=O)N1CCCn1ccnc1 (configuration not stated) 15.2%
CCOC(=O)c1cn(CC)c2cc3c(cc2c1=O)OCO3 7.12%
O=C(O)C[C@H]1C=C[C@@H](NC(=O)CCN2CCCCC2)[C@@H](CO)O1 -6.45%
CC(C)C[C@H](NC(=O)c1nc[nH]c1C(=O)N1CCC(C)CC1)C(=O)OC(C)(C)C -8.21%
CCCc1cc(CNC(=O)C2CCC(=O)N(CCc3cccc(F)c3)C2)on1 (configuration not stated) -19.7%
CC(C)C[C@@H](COc1ccccc1)N1CCN(Cc2ccccc2)CCC1=O -10.9%
Cc1noc(C)c1S(=O)(=O)Nc1ccc2c(c1)C(=O)N([C@H](C)CO)C[C@H](C)[C@H](CN(C)C(=O)Nc1ccccc1)OCCCC[C@@H](C)O2 7.27%
CCC(=O)N1[C@@H]2c3ccc(C4=CCCCC4)c(=O)n3C[C@H]1[C@H](CO)[C@H]2C(=O)N[C@H](C)c1ccccc1 14.6%
CC(Oc1ccccc1Cl)C(=O)N1CCOCC1 (configuration not stated) 12.7%
COc1ccc(C(CNC(=O)CCNC(=O)c2ccc(Br)cc2)N2CCOCC2)cc1 (configuration not stated) 10.9%
O=C(c1cc(C2CC2)on1)N1CCCC(N2CCN(c3cccc(C(F)(F)F)c3)CC2)C1 (configuration not stated) 8.43%
CCOC(=O)CC1(C)Sc2ccccc2N1S(=O)(=O)c1ccc(C)cc1 (configuration not stated) 5.54%
O=C(O)C1CCCCC1C(=O)N1CCN(S(=O)(=O)c2ccc(F)cc2)CC1 (configuration not stated) -12.7%
CCCCNC(=O)C1(C)CCN1C(=O)c1cncc(Br)c1 (configuration not stated) -12.5%
CCOC(=O)C1=C(CS(=O)(=O)c2ccc(C)cc2)NC(=O)NC1c1cc(OC)c(O)c(OC)c1 (configuration not stated) 2.77%
Cc1[nH]c2ccccc2c1CC(=O)Nc1ccc(N(C)c2cccnc2)c(-c2ccc(F)c(F)c2)c1 -18.9%

Structures from the list above that have an aryl methoxy group, in the order listed:
CPE protection (higher = active), inactive:
COc1ccc(S(=O)(=O)N2CCCCC2c2cc(C(=O)Nc3ccccc3)no2)cc1 (configuration not stated) 23%
COc1cc2c(cc1OC)C(Nc1ccc(S(N)(=O)=O)cc1)=NC(C)(C)C2 -11.4%
COc1cccc(-c2ccc3c(c2)[C@H]2[C@H](CCN2S(=O)(=O)c2cn(C)cn2)[C@@H](CO)N3)c1 -4.08%
C=CCc1ccc(OCCCNCc2ccccc2)c(OC)c1 -3.76%
COc1ccccc1CN1CCCC(N2CCN(c3ccccc3OC)CC2)C1 (configuration not stated) -5.36%
COc1ccccc1CN1[C@H](CO)[C@@H](c2ccccc2)C12CN(C(=O)c1ccccn1)C2 17.5%
CCCCCNCc1ccc(OCc2ccc(Cl)nc2)c(OC)c1 -18.7%
COc1ccc(CC(=O)NCC2CCCN(Cc3ccc(OC(F)(F)F)cc3)C2)cc1 (configuration not stated) 12.2%
COc1cc(C(=O)OCCn2c(=O)c3c(ncn3CCN(C)C)n(C)c2=O)cc(OC)c1OC -1.4%
COc1ccc(-c2cc(C#N)nc(NN)n2)cc1 -4.19%
COc1ccc(Cc2nnc(NC(=O)c3ccccc3Cl)s2)cc1OC -3.71% [at 10 µM]
COc1ccc(C(CNC(=O)CCNC(=O)c2ccc(Br)cc2)N2CCOCC2)cc1 (configuration not stated) 10.9%
CCOC(=O)C1=C(CS(=O)(=O)c2ccc(C)cc2)NC(=O)NC1c1cc(OC)c(O)c(OC)c1 (configuration not stated) 2.77%

Looked up by structure from the entries so far:
CPE protection (higher = active), inactive:
C[C@@H]1CCCCO[C@@H](CN(C)C(=O)c2ccccc2)[C@@H](C)CN([C@H](C)CO)C(=O)c2cc(NC(=O)CCC(F)(F)F)ccc2O1 -4.35%
COc1ccc(C(CNC(=O)CCNC(=O)c2ccc(Br)cc2)N2CCOCC2)cc1 (configuration not stated) 10.9%
